Test results taken from US20140249143A1, “Compounds And Methods For Enhancing Innate Immune Responses” (GlaxoSmithKline LLC, priority 2011, published 2014).
Some entries share one result that the patent states for a list of compounds.

Columns and labels:
[1] = test system: reconstructed human epidermis (RHE) keratinocytes; experiment: JAK/STAT induction in reconstructed human epidermis (western blot, real-time PCR); format: cell-based; conditions: 10 μM, 6 and 72 hrs
Procedure: First, reconstructed human epidermis (“RHE”) consisting of cultured human keratinocyte cells were incubated in triplicate with media containing either the media alone, media+0.1% DMSO, media containing 10 μM of several putative JAK/STAT activator compounds described herein in Tables 1 and 2 (Example 1, Example 2, Example 11, and compound no. 89 (as a negative control)), or media containing 100 U/mL of a positive control Interferon-alpha (IFN-alpha) recombinant protein at 37° C. in a humidified atmosphere containing 5% CO2, for 6 and 72 hours.
At the end of the incubation period, the RHE tissues were cut into two sections. One section was ¼ of the total size and the second section was […].

[2] = test system: 1106 KERTr (E6/E7 transformed) human keratinocytes; experiment: ISG expression in 1106 KERTr (E6/E7 transformed) human keratinocytes; format: cell-based; conditions: 10 μM, 8 and 72 hrs

| Compound | upregulation of ISG expression, including MX1, OAS2, and IL-6 [1] [fold] | upregulation of ISG expression, including MX1, OAS2, and IL-6 [2] [fold] |
| --- | --- | --- |
| FC(F)(F)c1nc(C(F)(F)F)c2ccc3nc(-c4nnco4)cn3c2n1 [Compound 11, 4-(1,3,4-oxadiazol-2-yl)-10,12-bis(trifluoromethyl)-2,5,11,13-tetraazatricyclo[7.4.0.0^2,^6]trideca-1(9),3,5,7,10,12-hexaene] | > 10 | > 100 |
| FC(F)(F)c1cc(C2CCCC2)nc2c1ccc1nc(-c3nnco3)cn12 [Compound 2, 2-[2-cyclopentyl-4-(trifluoromethyl)imidazo[1,2-a]1,8-naphthyridin-8-yl]-1,3,4-oxadiazole] | > 10 | > 100 |
| FC(F)(F)c1cc(C(F)(F)F)c2ccc3nc(-c4nnco4)cn3c2n1 [Compound 1, 2-[2,4-bis(trifluoromethyl)imidazo[1,2-a]1,8-naphthyridin-8-yl]-1,3,4-oxadiazole] | > 10 | > 100 |
